No constants are given. Whether binding was seen depends on the method and setting. For some assays here: Binding calls can cover weak binding; strength is not graded here. For some assays here: Where a sequence is shown, tags or fusion partners need not be part of it. For some assays here: Binding seen in cells or lysates may run through a third protein.

Assay [1] concerns the target T1, CAT1–nYFP (Nicotiana tabacum) (UniProt P49319).
T1 sequence: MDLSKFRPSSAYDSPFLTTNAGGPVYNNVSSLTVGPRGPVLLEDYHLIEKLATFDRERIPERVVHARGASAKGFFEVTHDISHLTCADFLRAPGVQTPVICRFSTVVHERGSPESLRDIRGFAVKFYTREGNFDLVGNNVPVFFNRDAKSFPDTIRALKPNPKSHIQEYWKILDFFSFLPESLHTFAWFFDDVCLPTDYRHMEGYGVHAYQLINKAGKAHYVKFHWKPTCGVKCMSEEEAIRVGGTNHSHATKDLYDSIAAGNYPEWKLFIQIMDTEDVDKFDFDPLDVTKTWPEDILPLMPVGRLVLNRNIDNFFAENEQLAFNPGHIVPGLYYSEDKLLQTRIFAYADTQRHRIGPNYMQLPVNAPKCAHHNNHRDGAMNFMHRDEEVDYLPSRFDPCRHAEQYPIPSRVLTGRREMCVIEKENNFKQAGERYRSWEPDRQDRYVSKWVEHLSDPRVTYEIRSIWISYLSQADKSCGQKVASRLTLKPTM
Put plainly: split reporter; BiFC; CAT–nYFP and HCPro–cYFP co-infiltrated by Agrobacterium into N. benthamiana leaves; YFP fluorescence by confocal microscopy after at least 48 h.

For assay [2], the target named is T2, CAT1–GST (Nicotiana tabacum) (UniProt P49319).
T2 sequence: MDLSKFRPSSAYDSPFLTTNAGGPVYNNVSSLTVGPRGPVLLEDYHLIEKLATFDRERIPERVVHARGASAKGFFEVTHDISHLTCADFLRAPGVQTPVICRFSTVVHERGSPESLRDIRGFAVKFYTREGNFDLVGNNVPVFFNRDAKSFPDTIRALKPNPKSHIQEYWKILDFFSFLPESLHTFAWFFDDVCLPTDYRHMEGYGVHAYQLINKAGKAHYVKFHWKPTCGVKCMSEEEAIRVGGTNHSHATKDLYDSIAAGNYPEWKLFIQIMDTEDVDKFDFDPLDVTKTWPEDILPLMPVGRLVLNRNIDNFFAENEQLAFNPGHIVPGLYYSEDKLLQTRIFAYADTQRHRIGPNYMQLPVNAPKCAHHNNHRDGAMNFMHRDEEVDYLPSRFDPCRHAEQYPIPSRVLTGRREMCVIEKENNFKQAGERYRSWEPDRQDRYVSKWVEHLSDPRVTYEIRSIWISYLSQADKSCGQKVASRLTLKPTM
Put plainly: pull-down; condition: approximately 10 μg of GST fusion protein in 500 μl; […]; 50 mM Tris–HCl pH 6.8, 300 mM NaCl, 1.5% glycerol, 0.6% Triton-X 100, 0.1% Tween; 2 h at 4 °C; […]; both purified.

Assay [3] has as its target T3, catalase 1 (CAT1), full-length CDS in pGBKT7 (Nicotiana tabacum) (UniProt P49319).
T3 sequence: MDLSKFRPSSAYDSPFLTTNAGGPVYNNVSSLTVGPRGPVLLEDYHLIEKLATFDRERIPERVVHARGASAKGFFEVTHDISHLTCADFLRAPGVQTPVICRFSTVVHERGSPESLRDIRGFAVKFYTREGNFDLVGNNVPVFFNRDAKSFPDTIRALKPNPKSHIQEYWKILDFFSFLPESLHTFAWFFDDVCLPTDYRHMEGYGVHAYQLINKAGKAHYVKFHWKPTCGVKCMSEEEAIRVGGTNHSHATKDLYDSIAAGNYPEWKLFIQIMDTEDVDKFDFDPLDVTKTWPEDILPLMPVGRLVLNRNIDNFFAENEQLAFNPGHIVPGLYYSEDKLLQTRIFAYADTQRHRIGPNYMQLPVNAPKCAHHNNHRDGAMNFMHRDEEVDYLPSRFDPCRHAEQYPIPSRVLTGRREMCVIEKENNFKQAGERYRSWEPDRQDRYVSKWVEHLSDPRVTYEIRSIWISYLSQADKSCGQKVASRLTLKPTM
Put plainly: two-hybrid.

Assay [4] deals with GST–HCPro (Chilli veinal mottle virus). Put plainly: pull-down; GST pull-down; GST–HCPro held on GST beads, CAT–MBP or MBP in solution; 50 mM Tris–HCl pH 6.8, 300 mM NaCl, 1.5% glycerol, 0.6% Triton-X 100, 0.1% Tween; 2 h at 4 °C; blot with anti-MBP and anti-GST; both purified.

For HCPro–cYFP (Chilli veinal mottle virus), the binding result in assay [1] is “binds”.

Turning to “N-terminus of HCPro (HC-N, amino acids 1–100) with MBP tag (Chilli veinal mottle virus) (domain or fragment)”, the binding entry in assay [2] is recorded as “no binding”.

As to “Chilli veinal mottle virus helper component proteinase (HCPro), full-length CDS in pGADT7”, in assay [3], the binding result is recorded as “binds”.

With “central region of HCPro (residues 101–300) with MBP tag (Chilli veinal mottle virus) (domain or fragment)”, in assay [2], the binding entry is “no binding”.

B1: CAT1–MBP (enzyme, UniProt P49319 1-492)
chain: MDLSKFRPSSAYDSPFLTTNAGGPVYNNVSSLTVGPRGPVLLEDYHLIEKLATFDRERIPERVVHARGASAKGFFEVTHDISHLTCADFLRAPGVQTPVICRFSTVVHERGSPESLRDIRGFAVKFYTREGNFDLVGNNVPVFFNRDAKSFPDTIRALKPNPKSHIQEYWKILDFFSFLPESLHTFAWFFDDVCLPTDYRHMEGYGVHAYQLINKAGKAHYVKFHWKPTCGVKCMSEEEAIRVGGTNHSHATKDLYDSIAAGNYPEWKLFIQIMDTEDVDKFDFDPLDVTKTWPEDILPLMPVGRLVLNRNIDNFFAENEQLAFNPGHIVPGLYYSEDKLLQTRIFAYADTQRHRIGPNYMQLPVNAPKCAHHNNHRDGAMNFMHRDEEVDYLPSRFDPCRHAEQYPIPSRVLTGRREMCVIEKENNFKQAGERYRSWEPDRQDRYVSKWVEHLSDPRVTYEIRSIWISYLSQADKSCGQKVASRLTLKPTM
In the case of B1, the binding result in assay [4] is “binds”.

The values are drawn from article PMC7501817.
